Measured values taken from patent US20210054355A1 (NEW YORK UNIVERSITY, published 2021).
Results are given in words; binding and its absence hold for the method and conditions named. Some results given as binding are weak or reduced against the parent protein; the word gives no strength.

T1: FGF23 C-terminal tail peptide (FGF23^C-tail) (human)
T1 sequence (peptide): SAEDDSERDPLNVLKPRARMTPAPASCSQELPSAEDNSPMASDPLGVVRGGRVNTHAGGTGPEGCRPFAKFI


Biological target: T1, FGF23 C-terminal tail peptide (FGF23^C-tail) (human)
Experiment: fluorescence dye-based thermal shift assay, 1:1 mixture

| binding | Binder |
| --- | --- |
| binds | αKlotho^ecto/ΔRBA (soluble αKlotho ectodomain lacking L544 to T565 of the KL2 β1α1 loop) (receptor, the mature protein is E34 to S959; Expressed and purified like the wild type (pEF1α/myc-His A); also called α-Klotho^ecto/deltaRBA; αKlotho^ecto/ΔRBA mutant) EPGDGAQTWARVSRPPAPEAAGLFQGTFPDGFLWAVGSAAYQTEGGWQQHGKGASIWDTFTHHPLAPPGDSRNASLPLGAPSPLQPATGDVASDSYNNVFRDTEALRELGVTHYRFSISWARVLPNGSAGVPNREGLRYYRRLLERLRELGVQPVVTLYHWDLPQRLQDAYGGWANRALADHFRDYAELCFRHFGGQVKYWITIDNPYVVAWHGYATGRLAPGIRGSPRLGYLVAHNLLLAHAKVWHLYNTSFRPTQGGQVSIALSSHWINPRRMTDHSIKECQKSLDFVLGWFAKPVFIDGDYPESMKNNLSSILPDFTESEKKFIKGTADFFALCFGPTLSFQLLDPHMKFRQLESPNLRQLLSWIDLEFNHPQIFIVENGWFVSGTTKRDDAKYMYYLKKFIMETLKAIKLDGVDVIGYTAWSLMDGFEWHRGYSIRRGLFYVDFLSQDKMLLPKSSALFYQKLIEKNGFPPLPENQPLEGTFPCDFAWGVVDNYIQVDTTLSQFTDKKRKSYCVDFAAIQPQIALLQEMHVTHFRFSLDWALILPLGNQSQVNHTILQYYRCMASELVRVNITPVVALWQPMAPNQGLPRLLARQGAWENPYTALAFAEYARLCFQELGHHVKLWITMNEPYTRNMTYSAGHNLLKAHALAWHVYNEKFRHAQNGKISIALQADWIEPACPFSQKDKEVAERVLEFDIGWLAEPIFGSGDYPWVMRDWLNQRNNFLLPYFTEDEKKLIQGTFDFLALSHYTTILVDSEKEDPIKYNDYLEVQEMTDITWLNSPSQVAVVPWGLRKVLNWLKFKYGDLPMYIISNGIDDGLHAEDDQLRVYYMQNYINEALKAHILDGINLCGYFAYSFNDRTAPRFGLYRYAADQFEPKASMKHYRKIIDSNGFPGPETLERFCPEEFTVCTECSFFHTRKS |
| binds | Soluble human α-Klotho ectodomain (αKlotho^ecto) (receptor, also called wild-type αKlotho^ecto; soluble αKlotho) EPGDGAQTWARVSRPPAPEAAGLFQGTFPDGFLWAVGSAAYQTEGGWQQHGKGASIWDTFTHHPLAPPGDSRNASLPLGAPSPLQPATGDVASDSYNNVFRDTEALRELGVTHYRFSISWARVLPNGSAGVPNREGLRYYRRLLERLRELGVQPVVTLYHWDLPQRLQDAYGGWANRALADHFRDYAELCFRHFGGQVKYWITIDNPYVVAWHGYATGRLAPGIRGSPRLGYLVAHNLLLAHAKVWHLYNTSFRPTQGGQVSIALSSHWINPRRMTDHSIKECQKSLDFVLGWFAKPVFIDGDYPESMKNNLSSILPDFTESEKKFIKGTADFFALCFGPTLSFQLLDPHMKFRQLESPNLRQLLSWIDLEFNHPQIFIVENGWFVSGTTKRDDAKYMYYLKKFIMETLKAIKLDGVDVIGYTAWSLMDGFEWHRGYSIRRGLFYVDFLSQDKMLLPKSSALFYQKLIEKNGFPPLPENQPLEGTFPCDFAWGVVDNYIQVDTTLSQFTDLNVYLWDVHHSKRLIKVDGVVTKKRKSYCVDFAAIQPQIALLQEMHVTHFRFSLDWALILPLGNQSQVNHTILQYYRCMASELVRVNITPVVALWQPMAPNQGLPRLLARQGAWENPYTALAFAEYARLCFQELGHHVKLWITMNEPYTRNMTYSAGHNLLKAHALAWHVYNEKFRHAQNGKISIALQADWIEPACPFSQKDKEVAERVLEFDIGWLAEPIFGSGDYPWVMRDWLNQRNNFLLPYFTEDEKKLIQGTFDFLALSHYTTILVDSEKEDPIKYNDYLEVQEMTDITWLNSPSQVAVVPWGLRKVLNWLKFKYGDLPMYIISNGIDDGLHAEDDQLRVYYMQNYINEALKAHILDGINLCGYFAYSFNDRTAPRFGLYRYAADQFEPKASMKHYRKIIDSNGFPGPETLERFCPEEFTVCTECSFFHTRKS |
